Source: article PMC9374740
Results are given in words; binding and its absence hold for the method and conditions named. In cells and extracts the contact can be indirect. Some binding calls cover weakened binding; strength is not graded here.

Chains of the proteins cited; added tags and fusions are not shown.
UniProt P61289: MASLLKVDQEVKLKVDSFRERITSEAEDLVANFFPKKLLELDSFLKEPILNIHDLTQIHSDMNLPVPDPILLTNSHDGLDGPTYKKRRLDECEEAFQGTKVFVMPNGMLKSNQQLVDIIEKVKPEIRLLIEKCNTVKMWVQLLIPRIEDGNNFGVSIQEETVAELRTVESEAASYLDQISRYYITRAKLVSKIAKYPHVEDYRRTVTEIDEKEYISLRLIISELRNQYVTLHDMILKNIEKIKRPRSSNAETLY

How the values were obtained:
[1] = target: HA-tagged MEK1 (UniProt Q02750); assay: co-IP; exogenous BRAF, MEK1 and PA28γ expressed together; immunoprecipitation with the Flag, HA or Myc antibody; immunoblot
[2] = target: HA-tagged MEK1 (UniProt Q02750); assay: co-IP; 293T cells co-transfected with two tagged plasmids; lysis in IP buffer (0.1% SDS, 1% Triton, 150 mM NaCl, 0.5 mM EDTA, 1 mM DTT); anti-Flag affinity gel, HA antibody or Myc antibody, overnight at 4 °C; immunoblot
[3] = target: Flag-tagged PA28γ (proteasomal activator 28 gamma) (human) (UniProt P61289); assay: co-IP; exogenous BRAF, MEK1 and PA28γ expressed together; immunoprecipitation with the Flag, HA or Myc antibody; immunoblot
[4] = target: Flag-tagged PA28γ (proteasomal activator 28 gamma) (human) (UniProt P61289); assay: co-IP; 293T cells co-transfected with two tagged plasmids; lysis in IP buffer (0.1% SDS, 1% Triton, 150 mM NaCl, 0.5 mM EDTA, 1 mM DTT); anti-Flag affinity gel, HA antibody or Myc antibody, overnight at 4 °C; immunoblot
[5] = target: endogenous PA28γ (human (endogenous in epithelial cells; HOK and HaCat are the epithelial lines of the paper)) (UniProt P61289); assay: co-IP; endogenous proteins; lysates incubated with 4 μg of anti-PA28γ, anti-BRAF or anti-MEK1 antibody overnight at 4 °C, then protein A + G agarose for 2 h; immunoblot
[6] = target: Flag-PA28γ stably overexpressed in epithelial cells (OE-PA28γ lentivirus) (human) (UniProt P61289); assay: co-IP; stable PA28γ-overexpressing epithelial cell lines, with or without knock-down of BRAF (mix of three siRNAs); PA28γ immunoprecipitates blotted for MEK1

“Flag-tagged PA28γ (proteasomal activator 28 gamma) (from UniProt P61289 1-254)” was tested, and the binding [1] was “binds” and the binding [2] was “binds”.
With “HA-tagged MEK1 (from UniProt Q02750 1-393)” the binding [3] was “binds” and the binding [4] was “binds”.
In the case of “endogenous MEK1 (from UniProt Q02750 1-393)”, the binding [5] is reported as “binds” and the binding [6] is reported as “binds”.
